{"source": "PubChem BioAssay AID493071", "about": "(National Center for Advancing Translational Sciences (NCATS), 2011)", "note": "Inconclusive means that the source gave no clear call. Such entries were picked first, then a sample of the others. Potencies beside an inconclusive call are fits to weak or partial responses and may not hold up. Activity calls are given as the source filed them. The call rests on the fitted dose curve; in most records, active means well fitted cell-killing curve with a large enough effect; inconclusive means small, poorly fitted or top-dose-only effect; inactive means flat fitted curve, though single readings scatter."}
{"assay": "HCC4017 Cell Viability Secondary Assay for qHTS Assay for Epigenetic Modulators", "conditions": "HCC4017 NSCLC viability, CellTiter-Glo ATP luminescence, 72 h; series mostly up to 46.1 µM", "description": "NIH Molecular Libraries Screening Centers Network [MLSCN] NIH Chemical Genomics Center [NCGC] MLSCN Grant: 1 X01 MH079860-01 Assay Provider: Elisabeth D. Martinez, University of Texas SW Medical Center NCGC Assay Overview: This secondary assay characterizes selected actives identified in the qHTS of the Locus Derepression (LDR) assay (PubChem AID 1865). The LDR assay detects the derepression of a GFP reporter that is stably integrated in a region of the genome of murine c127i mammary cells that is presumably silenced. Compounds that cause derepression of the locus to express GFP are identified by enumerating GFP positive cells using a laser-scanning microplate cytometer. Selected LDR actives were assayed for killing of HCC4017, a patient-derived nonsmall cell lung carcinoma line. Known epigenetic drugs, like histone deacetylase inhibitors, can block cancer cell growth. Cell viability was measured using a luminescence-based detection reagent that measures cellular ATP levels.\nNCGC Assay Protocol Summary HCC4017 cells were seeded at 125 cells/5 uL/well in white, solid bottom, 1536 well plates (Grenier). After 16-hour incubation at 37deg C and 5% CO2, 23 nL of compound were transferred into the assay plate via a pin tool. Plates were incubated 72 hours at 37deg C and 5% CO2, then 3.5 uL/well CellTiter-Glo(R) (Promega) detection reagent was added, plates were incubated at ambient temperature for 10 minutes and luminescence was measured by a ViewLux (Perkin Elmer) reader. For further details, see Johnson, RL, Huang, W, Jadhav, A, Austin, CP, Inglese, J, Martinez, ED (2008). A quantitative high-throughput screen identifies potential epigenetic modulators of gene expression. Anal Biochem 375: 237-48."}
{"smiles": "O=C(NN1C(=O)c2ccccc2NC1c1ccc([N+](=O)[O-])o1)c1ccc([N+](=O)[O-])cc1", "note": "(stereo not drawn)", "Potency": "inconclusive: 15.8 µM [cytotoxic, partial curve, poor fit]"}
{"smiles": "CCc1ccc(NC(=O)C2CCC(CNS(=O)(=O)c3ccc4c(c3)CC(C)N4C(C)=O)CC2)cc1", "note": "(stereo not drawn)", "Potency": "inconclusive: 11.2 µM [cytotoxic, partial curve, poor fit]"}
{"smiles": "CN(C)S(=O)(=O)c1cccc(NC(=S)N/N=C/c2ccco2)c1", "Potency": "inactive"}
{"smiles": "CCCCOC(=O)Cn1c2ccc(OC)cc2c2nc3ccccc3nc21", "Potency": "inconclusive: 39.7 µM [cytotoxic, partial curve, poor fit]"}
{"smiles": "CC1=C/C(=N\\NC(=S)Nc2cccnc2)CC(C)(C)C1", "Potency": "inconclusive: 15.8 µM [cytotoxic, single point]"}
{"smiles": "COc1ccc2c(C)nc(Nc3nc(-c4ccccc4)cc(=O)[nH]3)nc2c1", "Potency": "active: 8.88 µM"}
{"smiles": "CN(c1ccccc1)S(=O)(=O)c1nnc(NC(=O)c2ccccc2)s1", "Potency": "inactive"}
{"smiles": "Oc1ccc(Br)cc1C=Nc1ccc2c3c(cccc13)CC2", "Potency": "inactive"}
{"smiles": "CCN(CC)CCCNC(=O)CSc1c2c(nc3cc(Cl)ccc13)CCCC2", "Potency": "inconclusive: 1.41 µM [cytotoxic, full curve]"}
{"smiles": "O=C(CSc1cccc[n+]1[O-])c1ccccc1Br", "Potency": "inactive"}
{"smiles": "O=C1C=C(Nc2ccc(Cl)cc2)C(=O)N1c1ccc(Cl)cc1", "Potency": "inactive"}
{"smiles": "N=c1n(CC(=O)c2ccc([N+](=O)[O-])cc2)c2ccccc2n1Cc1ccccc1Cl", "Potency": "active: 12.5 µM"}
{"smiles": "O=C1CN(c2nc(-c3ccccc3)c3cc(Cl)ccc3n2)c2ccccc2N1", "Potency": "inactive"}
{"smiles": "C/C=C/c1ccc(OCC(=O)OCC(=O)NC2CC2)c(OC)c1", "Potency": "inactive"}
{"smiles": "COc1ccccc1OCC(=O)N/N=C/C=C/c1ccc([N+](=O)[O-])o1", "Potency": "inconclusive: 2.23 µM [cytotoxic, full curve, poor fit]"}
{"smiles": "COCCNC(=S)N/N=C(\\C)c1ccccc1O", "Potency": "inconclusive: 0.996 µM [cytotoxic, full curve]"}
{"smiles": "COc1ccc2c(C)cc(SCC(=O)N(C)C3CCS(=O)(=O)C3)nc2c1", "note": "(stereo not drawn)", "Potency": "inactive"}
{"smiles": "O=c1c2ccccc2nc(COc2ccccc2)n1/N=C/c1c[nH]c2ccccc12", "Potency": "inconclusive: 7.05 µM [cytotoxic, partial curve, poor fit]"}
{"smiles": "CSc1nsc(/C=C/Nc2cccc(Cl)c2)c1C#N", "Potency": "inactive"}
{"smiles": "S=C(Nc1ccccc1)c1ccccn1", "Potency": "inactive"}
{"smiles": "O=C(N/N=C/c1ccccn1)c1cc(-c2ccc(Cl)cc2)nc2ccccc12", "Potency": "inconclusive: 11.2 µM [cytotoxic, partial curve]"}
{"smiles": "NC(=S)N/N=C/c1ncc(C(F)(F)F)cc1Cl", "Potency": "inconclusive: 2.81 µM [cytotoxic, partial curve, poor fit]"}
{"smiles": "O=C(CSc1cccc2cccnc12)N1CCCC1", "Potency": "inconclusive: 15.8 µM [cytotoxic, partial curve]"}
